Experimental data: PubChem BioAssay AID1159578 (Peter MacCallum Cancer Centre, 2015)
Purpose: 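Genome-wide hunt for genes controlling movement of lymphatic endothelial cells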 (primary screen). System: human lymphatic endothelial cells. Knock-down reagent: siRNA pool against human genes, 40 nM. Time to read-out: 48 h after transfection. Measurement: 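High-content imaging of dye-stained cells in a scratch assay measures filled wound area and nuclei per well; duplicate means given as ratio to mock and robust z-score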. Direction: migration robust z-score: higher = faster migration into the scratch; nuclei per well: higher = more cells in the well. Rule for the call: 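Migration changed when robust z exceeds 2 or falls below -2 and mean nuclei number is at least 3300; otherwise not called changed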. Calls: active = migration changed; inactive = no migration change, or too few cells.
In all, the deposit lists about 18,000 reagents; below is a random part of them. About 1,030 of them (5.7%) count as active. 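Inactive calls also include pools with fewer than 3300 nuclei, whose migration was not assessed.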 The raw values are shown without normalisation. Further read-outs or replicates are left out here.

{"gene knocked down":"POLDIP3 (GeneID 84271)","migration robust z-score":0.54,"migration class with cell-count check":"migration z between -2 and 2; enough cells","nuclei per well, duplicate mean":6526,"activity call":"inactive"}
{"gene knocked down":"CIB3 (GeneID 117286)","migration robust z-score":0.24,"migration class with cell-count check":"migration z between -2 and 2; enough cells","nuclei per well, duplicate mean":5824,"activity call":"inactive"}
{"gene knocked down":"TMEM87B (GeneID 84910)","migration robust z-score":0.76,"migration class with cell-count check":"migration z between -2 and 2; enough cells","nuclei per well, duplicate mean":6277,"activity call":"inactive"}
{"gene knocked down":"GTPBP2 (GeneID 54676)","migration robust z-score":-1.25,"migration class with cell-count check":"migration z between -2 and 2; enough cells","nuclei per well, duplicate mean":4396,"activity call":"inactive"}
{"gene knocked down":"MED8 (GeneID 112950)","migration robust z-score":-0.34,"migration class with cell-count check":"migration z between -2 and 2; enough cells","nuclei per well, duplicate mean":5096,"activity call":"inactive"}
{"gene knocked down":"OR51B4 (GeneID 79339)","migration robust z-score":-0.76,"migration class with cell-count check":"migration z between -2 and 2; enough cells","nuclei per well, duplicate mean":6798,"activity call":"inactive"}
{"gene knocked down":"NBR1 (GeneID 4077)","migration robust z-score":0.6,"migration class with cell-count check":"migration z between -2 and 2; enough cells","nuclei per well, duplicate mean":5538,"activity call":"inactive"}
{"gene knocked down":"COPA (GeneID 1314)","migration robust z-score":-0.91,"migration class with cell-count check":"migration z between -2 and 2; enough cells","nuclei per well, duplicate mean":5659,"activity call":"inactive"}
{"gene knocked down":"SUSD4 (GeneID 55061)","migration robust z-score":-2.42,"migration class with cell-count check":"migration z below -2; enough cells","nuclei per well, duplicate mean":4037,"activity call":"active"}
{"gene knocked down":"FAM114A1 (GeneID 92689)","migration robust z-score":-0.84,"migration class with cell-count check":"migration z between -2 and 2; enough cells","nuclei per well, duplicate mean":3410,"activity call":"inactive"}
{"gene knocked down":"TAAR6 (GeneID 319100)","migration robust z-score":0.44,"migration class with cell-count check":"migration z between -2 and 2; enough cells","nuclei per well, duplicate mean":4560,"activity call":"inactive"}
{"gene knocked down":"PCDHB15 (GeneID 56121)","migration robust z-score":-0.26,"migration class with cell-count check":"migration z between -2 and 2; enough cells","nuclei per well, duplicate mean":5044,"activity call":"inactive"}
{"gene knocked down":"RBP7 (GeneID 116362)","migration robust z-score":0.46,"migration class with cell-count check":"migration z between -2 and 2; enough cells","nuclei per well, duplicate mean":5596,"activity call":"inactive"}
{"gene knocked down":"ABCC9 (GeneID 10060)","migration robust z-score":-0.44,"migration class with cell-count check":"migration z between -2 and 2; enough cells","nuclei per well, duplicate mean":4630,"activity call":"inactive"}
{"gene knocked down":"PMPCA (GeneID 23203)","migration robust z-score":1.48,"migration class with cell-count check":"migration z between -2 and 2; enough cells","nuclei per well, duplicate mean":5602,"activity call":"inactive"}
{"gene knocked down":"CCDC146 (GeneID 57639)","migration robust z-score":0.24,"migration class with cell-count check":"migration z between -2 and 2; enough cells","nuclei per well, duplicate mean":6252,"activity call":"inactive"}
{"gene knocked down":"SRP19 (GeneID 6728)","migration robust z-score":0.68,"migration class with cell-count check":"migration z between -2 and 2; enough cells","nuclei per well, duplicate mean":7084,"activity call":"inactive"}
{"gene knocked down":"TAX1BP3 (GeneID 30851)","migration robust z-score":-1.53,"migration class with cell-count check":"migration z between -2 and 2; enough cells","nuclei per well, duplicate mean":5679,"activity call":"inactive"}
{"gene knocked down":"TFAP2A (GeneID 7020)","migration robust z-score":-0.13,"migration class with cell-count check":"migration z between -2 and 2; enough cells","nuclei per well, duplicate mean":6778,"activity call":"inactive"}
{"gene knocked down":"CLPSL1 (GeneID 340204)","migration robust z-score":-0.43,"migration class with cell-count check":"migration z between -2 and 2; enough cells","nuclei per well, duplicate mean":5046,"activity call":"inactive"}
{"gene knocked down":"PCDH7 (GeneID 5099)","migration robust z-score":-1.68,"migration class with cell-count check":"migration z between -2 and 2; enough cells","nuclei per well, duplicate mean":5450,"activity call":"inactive"}
{"gene knocked down":"TEX44 (GeneID 165100)","migration robust z-score":0.38,"migration class with cell-count check":"migration z between -2 and 2; enough cells","nuclei per well, duplicate mean":5351,"activity call":"inactive"}
{"gene knocked down":"DLX4 (GeneID 1748)","migration robust z-score":-0.62,"migration class with cell-count check":"migration z between -2 and 2; enough cells","nuclei per well, duplicate mean":5301,"activity call":"inactive"}
{"gene knocked down":"CSMD3 (GeneID 114788)","migration robust z-score":-1.08,"migration class with cell-count check":"migration z between -2 and 2; enough cells","nuclei per well, duplicate mean":4934,"activity call":"inactive"}
{"gene knocked down":"TGFBRAP1 (GeneID 9392)","migration robust z-score":1.32,"migration class with cell-count check":"migration z between -2 and 2; enough cells","nuclei per well, duplicate mean":5968,"activity call":"inactive"}
{"gene knocked down":"MIR1-1HG (GeneID 128826)","migration robust z-score":1.15,"migration class with cell-count check":"migration z between -2 and 2; enough cells","nuclei per well, duplicate mean":5802,"activity call":"inactive"}
{"gene knocked down":"MAGEB3 (GeneID 4114)","migration robust z-score":0.14,"migration class with cell-count check":"migration z between -2 and 2; enough cells","nuclei per well, duplicate mean":6299,"activity call":"inactive"}

Quoted from the entries so far for reference:
{"gene knocked down":"TFAP2A (GeneID 7020)","migration robust z-score":-0.13,"migration class with cell-count check":"migration z between -2 and 2; enough cells","nuclei per well, duplicate mean":6778,"activity call":"inactive"}
{"gene knocked down":"CLPSL1 (GeneID 340204)","migration robust z-score":-0.43,"migration class with cell-count check":"migration z between -2 and 2; enough cells","nuclei per well, duplicate mean":5046,"activity call":"inactive"}
